Test results published in article PMC8183072.

Target: T1, CaMYB31 (Capsicum annuum (from the prefix Ca and the plant material; not stated outright for this cDNA))
T1 sequence: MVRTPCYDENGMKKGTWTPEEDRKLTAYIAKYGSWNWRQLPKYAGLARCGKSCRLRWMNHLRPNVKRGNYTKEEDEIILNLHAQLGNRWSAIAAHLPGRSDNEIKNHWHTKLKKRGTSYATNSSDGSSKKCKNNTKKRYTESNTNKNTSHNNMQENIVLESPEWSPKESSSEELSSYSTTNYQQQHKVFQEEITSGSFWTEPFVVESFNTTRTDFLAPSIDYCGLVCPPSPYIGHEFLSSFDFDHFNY
Assay: two-hybrid; AH109 yeast; pGADT7 and pGBKT7 fusions, forward and reverse orientation; growth on SD/-Trp-His-Leu-Ade against SD/-Trp-Leu; done by the manufacturer's instructions (Clontech)

Row | binding | Substance
1 | binds | CabHLH007 (Capsicum annuum)
2 | binds | CabHLH009 (Capsicum annuum)
3 | binds | CabHLH026 (Capsicum annuum)
4 | binds weakly | CabHLH063 (Capsicum annuum)
5 | binds weakly | CabHLH086 (Capsicum annuum)

These are yes or no findings as the source states them, for the method shown. A result given as binding can be weak or reduced; the word gives no strength. Where a sequence is shown, tags or fusion partners need not be part of it.
